Test [1] deals with HER2-Fc (human) (UniProt P04626). Briefly: ELISA; receptor-Fc fusion proteins or sEpCAM coated (300 ng/well); 20 nM protein (scTRAIL units); detected with anti-FLAG-HRP or anti-human IgG (Fc specific)-POD; relative OD450; both purified.
Test [2] addresses HER3-Fc (human) (UniProt P21860). The test is described as above.
Test [3] deals with T1, moDcTRAIL-R1 (Fc fusion protein) (mouse) (UniProt Q9ER63).
T1 sequence: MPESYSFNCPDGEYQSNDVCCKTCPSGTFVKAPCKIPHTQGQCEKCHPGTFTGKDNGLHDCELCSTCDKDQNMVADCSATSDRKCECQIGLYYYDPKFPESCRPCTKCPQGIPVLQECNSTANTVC
Nature of the test: ELISA; Fc fusion proteins of human and mouse TRAIL receptors coated (200 ng/well); 40 nM scTRAIL units; detected with anti-FLAG-HRP; relative OD450; both purified. A general note: ELISA stands for enzyme-linked immunosorbent assay.

Protein sequences, listed by entry. Tags and fused reporters are not part of them. Residues count along the entry.
UniProt P21860, residues 20-643: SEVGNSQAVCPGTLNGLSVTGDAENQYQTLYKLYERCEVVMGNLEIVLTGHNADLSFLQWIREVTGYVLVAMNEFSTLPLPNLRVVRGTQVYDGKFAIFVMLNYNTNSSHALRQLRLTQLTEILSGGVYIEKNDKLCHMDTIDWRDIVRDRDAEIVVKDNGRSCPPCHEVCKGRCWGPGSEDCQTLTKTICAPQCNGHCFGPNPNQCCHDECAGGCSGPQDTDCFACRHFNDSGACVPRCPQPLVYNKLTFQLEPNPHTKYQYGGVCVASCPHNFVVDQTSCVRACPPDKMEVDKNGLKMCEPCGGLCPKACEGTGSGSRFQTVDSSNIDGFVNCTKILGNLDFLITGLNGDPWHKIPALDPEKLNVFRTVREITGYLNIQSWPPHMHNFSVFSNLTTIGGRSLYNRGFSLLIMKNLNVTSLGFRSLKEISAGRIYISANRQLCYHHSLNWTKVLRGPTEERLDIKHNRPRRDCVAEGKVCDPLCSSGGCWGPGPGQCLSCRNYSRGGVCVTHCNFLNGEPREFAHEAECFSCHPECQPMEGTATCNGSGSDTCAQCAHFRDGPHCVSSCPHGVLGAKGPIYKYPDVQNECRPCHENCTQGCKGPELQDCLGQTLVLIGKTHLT

Data on 1 molecule can be found in PMC5834252, “Targeting scFv-Fc-scTRAIL fusion proteins to tumor cells” (Oncotarget, 2018).

Results are given in words; binding and its absence hold for the method and conditions named. For part of these data: Tags and fused reporters may be left off the sequences shown.

B1: Fc-scTRAIL (Fc fusion, human)
chain: GPQRVAAHITGTRGRSNTLSSPNSKNEKALGRKINSWESSRSGHSFLSNLHLRNGELVIHEKGFYYIYSQTYFRFQEEIKENTKNDKQMVQYIYKYTSYPDPILLMKSARNSCWSKDAEYGLYSIYQGGIFELKENDRIFVSVTNEHLIDMDHEASFFGAFLVGGGPQRVAAHITGTRGRSNTLSSPNSKNEKALGRKINSWESSRSGHSFLSNLHLRNGELVIHEKGFYYIYSQTYFRFQEEIKENTKNDKQMVQYIYKYTSYPDPILLMKSARNSCWSKDAEYGLYSIYQGGIFELKENDRIFVSVTNEHLIDMDHEASFFGAFLVGGGPQRVAAHITGTRGRSNTLSSPNSKNEKALGRKINSWESSRSGHSFLSNLHLRNGELVIHEKGFYYIYSQTYFRFQEEIKENTKNDKQMVQYIYKYTSYPDPILLMKSARNSCWSKDAEYGLYSIYQGGIFELKENDRIFVSVTNEHLIDMDHEASFFGAFLVG
notes: human TRAIL, first protomer of single-chain TRAIL (scTRAIL), amino acids 118-281; single glycine residue as linker between the TRAIL protomers; human TRAIL, second protomer of scTRAIL, amino acids 118-281; human TRAIL, third protomer of scTRAIL, amino acids 118-281; scTRAIL is fused to the C-terminus of the human gamma1 Fc; disulfide-linked dimer (hexavalent TRAIL); also called non-targeted …
On to B1, for which the binding entry in test [1] was “no binding (tested: 20 nM protein (scTRAIL units))”; in test [2], “no binding (tested: 20 nM protein (scTRAIL units))”; in test [3], “no binding (tested: 40 nM scTRAIL units)”.
